Read-outs that look alike come from different tables or passages of the source. Some of these results come from one statement about several compounds together.
System: S. aureus (ATCC 29213)
Assay type: cell-based
Experimental: Each mixture was incubated at 37° C. on a rotary shaking incubator for about 16 hours. MTT was then added to assess the viability of the cells (at 10% well volume). […] The cells were then streaked onto a TSA plate and incubated overnight at 37° C. These steps were repeated to reach a total of 30 exposures.

Clc1ccc(/N=N/c2c[nH]c3ccccc23)cc1 [Compound 9]
Resistance Evolved (listed as compound 9): no evolution of resistance was observed

Clc1ccc(Oc2c(-c3ccc(Cl)cc3)[nH]c3ccc(Cl)cc23)cc1 [Compound 11]
Resistance Evolved (listed as compound 11): no evolution of resistance was observed

Brc1ccc(/N=N/c2c[nH]c3ccccc23)cc1 [Compound 8]
Resistance Evolved (listed as compound 8): no evolution of resistance was observed

Clc1ccc(Oc2c(-c3ccc(Cl)cc3)[nH]c3ccccc23)cc1 [Compound 10]
Resistance Evolved (listed as compound 10): no evolution of resistance was observed

Source: patent US9834514B2, “Antibiotic sensitivity-restoring and photosensitive agents” (New Mexico Tech Research Foundation, priority 2015, dated 2017)
